We go through one molecule from publication PMC9830510.

Sequences of proteins named here, by UniProt entry; tags and fusion partners are left off. Residues count along the entry.
UniProt O75636, residues 24-299: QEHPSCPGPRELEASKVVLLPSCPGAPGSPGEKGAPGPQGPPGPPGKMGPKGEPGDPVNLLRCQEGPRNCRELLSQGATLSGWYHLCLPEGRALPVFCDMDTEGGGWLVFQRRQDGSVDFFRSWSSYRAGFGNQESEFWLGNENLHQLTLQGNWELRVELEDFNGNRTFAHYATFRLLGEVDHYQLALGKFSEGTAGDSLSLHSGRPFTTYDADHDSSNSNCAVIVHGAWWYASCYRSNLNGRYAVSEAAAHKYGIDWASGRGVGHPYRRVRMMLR

Results are given in words; binding and its absence hold for the method and conditions named. Binding seen in cells or lysates may run through a third protein. These calls come from enrichment with a bait or labelling near it, and not all partners need be listed.

The target in this assay is Full-length FCN3 (Ficolin-3) with a C-terminal 6x His tag (human) (UniProt O75636). The experiment in a line: affinity purification with mass spectrometry; HCCLM3 cells transfected with His-FCN3; co-IP with His-tag antibody on magnetic beads; eluate separated on SDS-PAGE, silver staining and mass spectrometry.

B1: SBDS (ribosome maturation factor), endogenous (protein, UniProt Q9Y3A5 1-250)
chain: MSIFTPTNQIRLTNVAVVRMKRAGKRFEIACYKNKVVGWRSGVEKDLDEVLQTHSVFVNVSKGQVAKKEDLISAFGTDDQTEICKQILTKGEVQVSDKERHTQLEQMFRDIATIVADKCVNPETKRPYTVILIERAMKDIHYSVKTNKSTKQQALEVIKQLKEKMKIERAHMRLRFILPVNEGKKLKEKLKPLIKVIESEDYGQQLEIVCLIDPGCFREIDELIKKETKGKGSLEVLNLKDVEEGDEKFE
Take B1: the binding entry was “binds”.
